PubChem BioAssay AID1671195, Yale University, 2021

- Assay: 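Genes whose knockdown alters LDL uptake in liver cancer cells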 (primary screen)
- Cell system: human Huh7 hepatoma cells
- Reagents: siRNA pool against human genes, 18 nM
- Duration: about 2 to 2.5 days of knockdown, then 8 h LDL uptake
- Conditions: DiI-labelled LDL at 30 µg/ml for 8 h, in lipoprotein-deficient serum medium
- Measurement: 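Per-cell DiI-LDL intensity by automated imaging; well means scaled to the plate median and given as a robust z-score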
- Reading the numbers: robust z-score: higher = more LDL uptake after knockdown
- Rule for the call: 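Active when two or more replicates show a robust z-score above 2 or below -2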
In all, the deposit lists about 22,000 reagents; below is a part drawn at random. Of all reagents, about 1,510 (6.9%) are marked active. 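Active includes knockdowns raising or lowering LDL uptake; positive z-scores mean more uptake, negative mean less.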

CCNT2: robust z-score, replicate 1 = -0.248; robust z-score, replicate 2 = 0.464; robust z-score, replicate 3 = 0.992; Call = inactive
LOC390975 (retired record): robust z-score, replicate 1 = 0.441; robust z-score, replicate 2 = 0.11; robust z-score, replicate 3 = -0.122; Call = inactive
CCDC77: robust z-score, replicate 1 = 0.83; robust z-score, replicate 2 = 0.472; robust z-score, replicate 3 = 0.175; Call = inactive
ZNF833P: robust z-score, replicate 1 = -0.562; robust z-score, replicate 2 = -0.34; robust z-score, replicate 3 = -0.225; Call = inactive
LCE1E: robust z-score, replicate 1 = -0.602; robust z-score, replicate 2 = -0.763; robust z-score, replicate 3 = -1.27; Call = inactive
PARP8: robust z-score, replicate 1 = -0.89; robust z-score, replicate 2 = -0.777; robust z-score, replicate 3 = -1.17; Call = inactive
LOC199897 (retired record): robust z-score, replicate 1 = -0.103; robust z-score, replicate 2 = 0.164; robust z-score, replicate 3 = 0.0203; Call = inactive
CMIP: robust z-score, replicate 1 = -0.418; robust z-score, replicate 2 = -0.647; robust z-score, replicate 3 = -1.04; Call = inactive
ACOT7: robust z-score, replicate 1 = -1.25; robust z-score, replicate 2 = -0.533; robust z-score, replicate 3 = -0.594; Call = inactive
AHNAK2: robust z-score, replicate 1 = -1.51; robust z-score, replicate 2 = -0.415; robust z-score, replicate 3 = -1.06; Call = inactive
NPY2R: robust z-score, replicate 1 = -1.51; robust z-score, replicate 2 = -1.37; robust z-score, replicate 3 = -1.19; Call = inactive
CHTF18: robust z-score, replicate 1 = 4.23; robust z-score, replicate 2 = 3.78; robust z-score, replicate 3 = 3.25; Call = active

Hits, of those listed so far:
CHTF18: robust z-score, replicate 1 = 4.23; robust z-score, replicate 2 = 3.78; robust z-score, replicate 3 = 3.25; Call = active
